These are yes or no findings as the source states them, for the method shown. In cells and extracts the contact can be indirect. Sequences can lack the tags named with a protein.
Biological target: T1, Flag-DNM2 (UniProt P50570)
T1 sequence: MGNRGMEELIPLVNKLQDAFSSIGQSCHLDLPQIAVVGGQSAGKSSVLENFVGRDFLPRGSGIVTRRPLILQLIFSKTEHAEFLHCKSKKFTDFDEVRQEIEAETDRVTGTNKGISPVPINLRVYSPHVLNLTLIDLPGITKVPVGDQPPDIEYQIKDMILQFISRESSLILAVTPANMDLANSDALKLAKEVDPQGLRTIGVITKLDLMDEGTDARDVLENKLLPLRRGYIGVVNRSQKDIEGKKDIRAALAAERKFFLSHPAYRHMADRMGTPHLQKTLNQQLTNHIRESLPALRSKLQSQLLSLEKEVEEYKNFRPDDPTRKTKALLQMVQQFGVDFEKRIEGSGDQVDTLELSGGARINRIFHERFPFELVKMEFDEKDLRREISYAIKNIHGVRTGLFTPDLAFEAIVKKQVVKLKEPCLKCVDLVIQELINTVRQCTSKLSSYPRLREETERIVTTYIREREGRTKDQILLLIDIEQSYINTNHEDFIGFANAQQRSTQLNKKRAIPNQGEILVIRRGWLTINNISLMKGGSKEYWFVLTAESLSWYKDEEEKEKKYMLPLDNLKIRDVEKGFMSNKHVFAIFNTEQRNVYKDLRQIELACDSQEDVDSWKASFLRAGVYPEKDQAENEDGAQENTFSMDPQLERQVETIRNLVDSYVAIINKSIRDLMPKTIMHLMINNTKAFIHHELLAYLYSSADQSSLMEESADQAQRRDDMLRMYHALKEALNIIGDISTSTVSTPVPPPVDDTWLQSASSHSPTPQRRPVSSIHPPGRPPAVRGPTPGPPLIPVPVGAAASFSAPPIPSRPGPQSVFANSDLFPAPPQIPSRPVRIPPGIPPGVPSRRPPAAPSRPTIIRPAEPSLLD
Experiment: co-IP; 293T cells co-transfected with Flag-DNM2 and Bif-1 or its deletion mutants; 1% Triton X-100 lysis buffer (30 mM Tris-HCl pH 7.5, 150 mM NaCl, 10% glycerol); immunoprecipitation with anti-Flag antibody; immunoblot

binding: no binding
Substance: Bif-1 (ΔSH3)-Myc (human) (domain or fragment)
